The values below are quoted from earlier work in US11123309B2, “Methods for drug delivery, tumor imaging, and oxidative dehydrogenation using hierarchical ZSM-5 complex” (Imam Abdulrahman Bin Faisal University, priority 2018, dated 2021).

Structures are written as SMILES.

In the case of `COC1=C(OC)C(=O)C(C/C=C(\C)CC/C=C(\C)CC/C=C(\C)CC/C=C(\C)CC/C=C(\C)CC/C=C(\C)CC/C=C(\C)CC/C=C(\C)CC/C=C(\C)CCC=C(C)C)=C(C)C1=O` [Coenzyme Q10], the solubility in water is less than 0.7 ng/mL.
